Results: patent US20230119082A1, “(AZIRIDINYL HYDROXY)-FUNCTIONAL ORGANIC COMPOUNDS” (COVESTRO (NETHERLANDS) B.V., priority 2020, published 2023)
Some compounds share one wording; it may come from a single statement.

Assay: Crosslinking efficiency: chemical resistance of cured films
Settings: film with polyurethane A-AQD, aziridine:carboxylic acid molar ratio 0.9; ethanol:demineralized water (1:1), 240 minutes

| SMILES | crosslinking efficiency |
| --- | --- |
| CC1CN1CC(O)COc1ccc(N(CC(O)CN2CC2C)CC(O)CN2CC2C)cc1 (stereo not drawn) [Example 3C] | good (the chemical resistance of a film measured as described in the specification is 3) |
| CC1CN1CC(O)CN(Cc1cccc(CN(CC(O)CN2CC2C)CC(O)CN2CC2C)c1)CC(O)CN1CC1C (stereo not drawn) [Example 2C] | good (the chemical resistance of a film measured as described in the specification is 3) |
| CC1CN1CC(O)COC(=O)NCCCCCCn1c(=O)n(CCCCCCNC(=O)OCC(O)CN2CC2C)c(=O)n(CCCCCCNC(=O)OCC(O)CN2CC2C)c1=O (stereo not drawn) [Example 3] | good (the chemical resistance of a film measured as described in the specification is 3) |
| CC1CN1CC(O)COc1ccc(C(C)(C)c2ccc(OCC(O)CN3CC3C)cc2)cc1 (stereo not drawn) [Example 4C] | good (the chemical resistance of a film measured as described in the specification is 3) |
| CCCCCCCC(CCCCCCCc1cccc(OCC(O)CN2CC2C)c1)c1ccc(OCC(O)CN2CC2C)cc1 (stereo not drawn) [Example 4] | good (the chemical resistance of a film measured as described in the specification is 3) |
| CC1CN1CC(O)COc1ccc(C(C)(c2ccc(OCC(O)CN3CC3C)cc2)c2ccc(OCC(O)CN3CC3C)cc2)cc1 (stereo not drawn) [Example 2] | good (the chemical resistance of a film measured as described in the specification is 3) |
